Data as given in the supplement of paper PMC11438910.
The list shows a part of the results. Most of these values are background signal.

What was measured:
Experiment in all cases: fluorescence intensity of antibody binding to polysaccharide-coupled beads; higher = stronger binding
[1] = target: pneumococcal polysaccharide Pn33B
Procedure: (§1)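 Recombinant rhesus-murine chimeric IgG1 antibodies were tested against antigen-coupled MagPlex beads in a 96-plex Luminex direct immunoassay (dLIA). The beads carried pneumococcal capsular polysaccharides of 93 serotypes plus C-polysaccharides. Antibody was added at 0.1–12,500 ng/mL for 1 h, then PE anti-mouse IgG, and net MFI was read on a Bio-Plex 3D. Only the rhesus variable regions are printed; constant regions are murine IgG1/kappa/lambda, and the signal peptide is MGWSCIILFLVATATGVHS.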

[2] = target: pneumococcal polysaccharide Pn33C
Procedure: as §1

[3] = target: pneumococcal polysaccharide Pn33D
Procedure: as §1

[4] = target: pneumococcal polysaccharide Pn33F
Procedure: as §1

[5] = target: pneumococcal polysaccharide Pn34
Procedure: as §1

[6] = target: pneumococcal polysaccharide Pn35A
Procedure: as §1

[7] = target: pneumococcal polysaccharide Pn35B
Procedure: as §1

[8] = target: pneumococcal polysaccharide Pn35C
Procedure: as §1

[9] = target: pneumococcal polysaccharide Pn35F
Procedure: as §1

[10] = target: pneumococcal polysaccharide Pn36
Procedure: as §1

[11] = target: pneumococcal polysaccharide Pn37
Procedure: as §1

[12] = target: pneumococcal polysaccharide Pn38
Procedure: as §1

[13] = antibody concentration 2.8593 ng/mL
[14] = antibody concentration 15.2894 ng/mL
[15] = antibody concentration 81.7561 ng/mL
[16] = antibody concentration 437.17 ng/mL
[17] = antibody concentration 2337.65 ng/mL
[18] = antibody concentration 12500 ng/mL
[19] = antibody concentration 0.1 ng/mL
[20] = antibody concentration 0.534724 ng/mL

B1: 4-99.5 (protein)
chain 1: QVQLQESGPGLVKPSETLSLTCAVSGYSISSGYYWGWIRQPPGKGLEYIGYISGSSGSPYYNPSLKSRVTISKDTSKNQFSLKLSSATAADTAVYYCARRQVGIGFDYWGQGVLVTVSS
chain 2: QAAPTQPPSVSGSPGQSVTISCTGTSSDIGYYNAVSWYQQHPGKAPKLMIYEVSKRPSGVSDRFSGSKSGNTASLTISGLQAEDEADYYCSSYAGSNTYIFGAGTRLTVL
fluorescence intensity [1, 13]: 18.5 MFI
fluorescence intensity [1, 14]: 19 MFI
fluorescence intensity [1, 15]: 18 MFI
fluorescence intensity [1, 16]: 19.5 MFI
fluorescence intensity [1, 17]: 18.5 MFI
fluorescence intensity [1, 18]: 22 MFI
fluorescence intensity [2, 19]: 19 MFI
fluorescence intensity [2, 20]: 20 MFI
fluorescence intensity [2, 13]: 19.5 MFI
fluorescence intensity [2, 14]: 19 MFI
fluorescence intensity [2, 15]: 19.2 MFI
fluorescence intensity [2, 16]: 19.5 MFI
fluorescence intensity [2, 17]: 20.5 MFI
fluorescence intensity [2, 18]: 30.5 MFI
fluorescence intensity [3, 19]: 17 MFI
fluorescence intensity [3, 20]: 15 MFI
fluorescence intensity [3, 13]: 15.5 MFI
fluorescence intensity [3, 14]: 17.8 MFI
fluorescence intensity [3, 15]: 16.2 MFI
fluorescence intensity [3, 16]: 16 MFI
fluorescence intensity [3, 17]: 16.5 MFI
fluorescence intensity [3, 18]: 21.5 MFI
fluorescence intensity [4, 19]: 13 MFI
fluorescence intensity [4, 20]: 13.2 MFI
fluorescence intensity [4, 13]: 13 MFI
fluorescence intensity [4, 14]: 14 MFI
fluorescence intensity [4, 15]: 13.5 MFI
fluorescence intensity [4, 16]: 14 MFI
fluorescence intensity [4, 17]: 18 MFI
fluorescence intensity [4, 18]: 41.5 MFI
fluorescence intensity [5, 19]: 14 MFI
fluorescence intensity [5, 20]: 14 MFI
fluorescence intensity [5, 13]: 14 MFI
fluorescence intensity [5, 14]: 15 MFI
fluorescence intensity [5, 15]: 15 MFI
fluorescence intensity [5, 16]: 16 MFI
fluorescence intensity [5, 17]: 14.5 MFI
fluorescence intensity [5, 18]: 17 MFI
fluorescence intensity [6, 19]: 18 MFI
fluorescence intensity [6, 20]: 17 MFI
fluorescence intensity [6, 13]: 16.5 MFI
fluorescence intensity [6, 14]: 16.8 MFI
fluorescence intensity [6, 15]: 16.5 MFI
fluorescence intensity [6, 16]: 17.5 MFI
fluorescence intensity [6, 17]: 19.2 MFI
fluorescence intensity [6, 18]: 37.5 MFI
fluorescence intensity [7, 19]: 18.8 MFI
fluorescence intensity [7, 20]: 19.5 MFI
fluorescence intensity [7, 13]: 18 MFI
fluorescence intensity [7, 14]: 18 MFI
fluorescence intensity [7, 15]: 18 MFI
fluorescence intensity [7, 16]: 18 MFI
fluorescence intensity [7, 17]: 19 MFI
fluorescence intensity [7, 18]: 33 MFI
fluorescence intensity [8, 19]: 21.5 MFI
fluorescence intensity [8, 20]: 21 MFI
fluorescence intensity [8, 13]: 20.5 MFI
fluorescence intensity [8, 14]: 20 MFI
fluorescence intensity [8, 15]: 20 MFI
fluorescence intensity [8, 16]: 20.5 MFI
fluorescence intensity [8, 17]: 20.5 MFI
fluorescence intensity [8, 18]: 25 MFI
fluorescence intensity [9, 19]: 24 MFI
fluorescence intensity [9, 20]: 19 MFI
fluorescence intensity [9, 13]: 17.5 MFI
fluorescence intensity [9, 14]: 19.8 MFI
fluorescence intensity [9, 15]: 20.2 MFI
fluorescence intensity [9, 16]: 20.2 MFI
fluorescence intensity [9, 17]: 21 MFI
fluorescence intensity [9, 18]: 24 MFI
fluorescence intensity [10, 19]: 16.2 MFI
fluorescence intensity [10, 20]: 16.5 MFI
fluorescence intensity [10, 13]: 16 MFI
fluorescence intensity [10, 14]: 16.2 MFI
fluorescence intensity [10, 15]: 16 MFI
fluorescence intensity [10, 16]: 17.5 MFI
fluorescence intensity [10, 17]: 18 MFI
fluorescence intensity [10, 18]: 25.2 MFI
fluorescence intensity [11, 19]: 26.5 MFI
fluorescence intensity [11, 20]: 28.5 MFI
fluorescence intensity [11, 13]: 26 MFI
fluorescence intensity [11, 14]: 27.2 MFI
fluorescence intensity [11, 15]: 26.5 MFI
fluorescence intensity [11, 16]: 26 MFI
fluorescence intensity [11, 17]: 29.8 MFI
fluorescence intensity [11, 18]: 80.2 MFI
fluorescence intensity [12, 19]: 27.8 MFI
fluorescence intensity [12, 20]: 26 MFI
fluorescence intensity [12, 13]: 25 MFI
fluorescence intensity [12, 14]: 25.5 MFI
